Data taken from ChEMBL document CHEMBL3988442, “University of Dundee, Small-Polar-MMV Screening Library” (2021).

By UniProt entry, the sequences of proteins in these tests, tags left out.
UniProt E9BF75, entry or part of it: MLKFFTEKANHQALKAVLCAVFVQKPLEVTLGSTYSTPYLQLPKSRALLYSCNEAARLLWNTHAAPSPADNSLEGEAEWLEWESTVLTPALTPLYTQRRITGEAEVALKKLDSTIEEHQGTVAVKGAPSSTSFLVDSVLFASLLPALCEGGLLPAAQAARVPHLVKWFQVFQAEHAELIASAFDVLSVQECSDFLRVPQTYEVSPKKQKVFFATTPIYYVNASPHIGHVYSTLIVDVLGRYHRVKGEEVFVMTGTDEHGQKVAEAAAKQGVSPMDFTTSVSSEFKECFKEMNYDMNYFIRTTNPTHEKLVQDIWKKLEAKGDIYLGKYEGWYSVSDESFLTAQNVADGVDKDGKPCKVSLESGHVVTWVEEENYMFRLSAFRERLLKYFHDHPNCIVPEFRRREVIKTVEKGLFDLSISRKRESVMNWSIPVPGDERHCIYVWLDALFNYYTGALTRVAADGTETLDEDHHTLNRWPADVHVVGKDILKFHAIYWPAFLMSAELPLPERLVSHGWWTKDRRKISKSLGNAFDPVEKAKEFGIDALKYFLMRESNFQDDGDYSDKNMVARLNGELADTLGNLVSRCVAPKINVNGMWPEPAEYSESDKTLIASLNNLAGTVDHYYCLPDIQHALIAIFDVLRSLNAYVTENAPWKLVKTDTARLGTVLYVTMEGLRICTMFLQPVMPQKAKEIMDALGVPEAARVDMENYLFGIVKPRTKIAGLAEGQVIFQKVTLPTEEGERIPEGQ

Results are percentages, as filed.
The record does not define 0% and 100%; most values in the screen are far below 50% and negative numbers occur (in some assays of this library far below -100).
This is an unselected part of the compounds tested.

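Primary screen of methionyl-tRNA synthetase; the read-out is not stated. Target: Methionyl-tRNA synthetase (putative), Leishmania donovani (UniProt E9BF75). The test concentration is not given. Values are per cent inhibition. About 68,000 compounds were tested under these conditions; 0.035% (about 24) showed 50% or more at least once.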

COc1c(CNC2CCN(C(=O)C(C)C)CC2)c(C(C)C)nn1C read 3.073%.
c1coc(-c2nc(CN3CCCC(Cn4cncn4)C3)cs2)c1 (stereo not drawn) read 23.62%.
CCc1ccc(C(=O)N2CC[C@](C)(O)C(C)(C)C2)[nH]1 read 13.07%.
CCOC(=O)NCCC(=O)NCc1ccc(Oc2ccc(F)cc2)nc1 read 6.832%.
CCc1nc(CN(C(C)=O)C2CCN(Cc3csc(C)n3)C2)no1 (stereo not drawn) read 16.62%.
CCc1ocnc1C(=O)N1CCOCC1CC(=O)c1ccccc1 (stereo not drawn) read 9.03%.
COc1cc(CN(C)Cc2cccnc2)c(SC)cc1OC read 7.107%.
Cc1oncc1C(=O)N1CCC2(CC1)CC(N1CCOCC1)C2 read 9.295%.
Cc1ccc(CN2Cc3nccn3CC(CN(C)C)C2)s1 (stereo not drawn) read 6%.
CCOC(=O)CN1CCC(NC(=O)OC(C)(C)C)CC1 read -0.2577%.
CN(Cc1cccnc1)C1CC2(CCN(Cc3ccccn3)CC2)C1 read 11.94%.
O=C(N[C@@H]1CN(Cc2ccc(F)c(F)c2)C[C@H]1O)c1cscn1 read 11.53%.
O=C(Cn1cc(-c2ccccc2)cn1)N1CCNC1=O read 11.15%.
CC(C)c1nnc2sc(CC3CN(Cc4ccccc4)CCO3)nn12 (stereo not drawn) read -3.364%.
COCC(=O)N[C@H](C)c1onc(-c2ccc(F)cc2)c1C(=O)O read 5.085%.
Cn1cc(Br)cc(NC(=O)CC(C)(C)C)c1=O read 9.756%.
Cc1cc(CN2C[C@@H]3COC[C@]3(CNC(=O)N(C)C)C2)no1 read 6.032%.
CC(=O)N1CCC(c2nccnc2Nc2ncc(C)s2)CC1 read 10.73%.
Cc1cc(=O)c(C(=O)N(C)Cc2ccc(Cl)c(F)c2)c[nH]1 read 2.821%.
CCc1cnc(C)nc1NCc1nc(COC)no1 read 5.85%.
Cc1nnc(N2C[C@H](OCc3cccnc3)[C@H]3OCCC[C@H]32)s1 read 0%.
CS(=O)(=O)NC[C@]12COC[C@H]1CN(C(=O)CC1CCCC1)C2 read 14.99%.
CN(C)C(C(=O)Nc1nccs1)c1c(F)cccc1Cl (stereo not drawn) read 13.59%.
O=C(c1cnc(-c2ccco2)s1)N1CCOc2ncccc21 read 3.971%.
CC(NCC1CCN(CCO)CC1)c1ccc(F)c(Cl)c1 (stereo not drawn) read 6.183%.
Cc1cc(NC(=O)CCN2CCCCC2Cn2cccn2)no1 (stereo not drawn) read 24.5%.
Cn1cc(CC2CC(=O)N(Cc3ccc(Cl)cc3)C2=O)cn1 (stereo not drawn) read 3.133%.
CCCc1nnc(NCCCn2nc(C)c(Cl)c2C)o1 read 5.115%.
Cc1cc(F)ccc1S(=O)(=O)NCc1cccc(C(=O)N2CCCC2)c1 read 18.75%.
Cc1ccc(C)c(OC2CCN(C(=O)NCC(=O)N3CCCC3)CC2)c1 read 12.74%.
COc1c(CNCC(=O)N2CCN(C)CC2)c(C(C)C)nn1C read 6.349%.
CSCc1nc(CCNC(=O)c2cnn(C(C)C)c2)cs1 read 16.43%.
Clc1cc(CN2CCCN3CCCC3C2)c2ncccc2c1 (stereo not drawn) read 36.34%.
CCc1cnc(N2C[C@H]3C[C@H](C(=O)NC)[C@@H](C2)O3)nc1 read 8.143%.
CC(=O)N[C@@H]1CN(C(=O)c2cnc3ccccc3c2)C[C@H]1O read 5.806%.
Cc1ccc(CN2CCc3ncnc(C4CC4)c3CC2)s1 read 4.603%.
COc1ccc2c(c1)C(=O)NC1(CC2)CCN(Cc2ccncc2)C1 (stereo not drawn) read 10.87%.
OCc1csc(N2CCCC(CO)(Cc3cccc(Cl)c3)C2)n1 (stereo not drawn) read 12.81%.

For reference, 2 entries once more:

{"structure": "CC(C)c1nnc2sc(CC3CN(Cc4ccccc4)CCO3)nn12", "stereo": "stereo not drawn", "Inhibition": -3.364}
{"structure": "CN(Cc1cccnc1)C1CC2(CCN(Cc3ccccn3)CC2)C1", "Inhibition": 11.94}